From PMC6605801
These are yes or no findings as the source states them, for the method shown. In cells and extracts the contact can be indirect. Here binding means that the protein was enriched with, or labelled near, the bait; the list need not be complete. For some of these results: No binding means not detected with the bait. Sequences can lack the tags named with a protein.

Assays:
[1] = target: T1, Dsn1-His-Flag (budding yeast) (UniProt P40568); assay: affinity purification with mass spectrometry; Dsn1-Flag immunoprecipitated on antibody-conjugated Dyna-beads from lysate of cells arrested in G1 with α-factor (5 µM); buffer H0.15 (25 mM Hepes pH 8.0, 150 mM KCl, 0.1% NP-40); eluted with 3XFlag peptide; MudPIT; triplicate, no-tag controls
T1 sequence: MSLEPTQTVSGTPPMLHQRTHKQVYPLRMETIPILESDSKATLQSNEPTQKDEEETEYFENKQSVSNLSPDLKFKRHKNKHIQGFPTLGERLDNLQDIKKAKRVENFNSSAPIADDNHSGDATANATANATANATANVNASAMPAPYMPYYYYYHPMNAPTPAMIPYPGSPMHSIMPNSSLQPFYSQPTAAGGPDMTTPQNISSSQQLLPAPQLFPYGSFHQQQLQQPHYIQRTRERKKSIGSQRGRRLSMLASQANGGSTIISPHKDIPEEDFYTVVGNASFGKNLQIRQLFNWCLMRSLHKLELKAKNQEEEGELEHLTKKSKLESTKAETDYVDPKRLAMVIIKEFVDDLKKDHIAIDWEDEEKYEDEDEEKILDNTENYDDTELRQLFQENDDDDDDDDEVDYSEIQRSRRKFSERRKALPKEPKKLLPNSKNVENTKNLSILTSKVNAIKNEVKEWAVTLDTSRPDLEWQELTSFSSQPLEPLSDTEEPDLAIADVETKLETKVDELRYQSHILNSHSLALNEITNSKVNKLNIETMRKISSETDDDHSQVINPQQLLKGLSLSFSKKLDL

[2] = target: T1, Dsn1-His-Flag (budding yeast); assay: affinity purification with mass spectrometry; Dsn1-Flag immunoprecipitated on antibody-conjugated Dyna-beads from lysate of cdc15-1 cells arrested in anaphase (37°C for 3 h); buffer H0.15 (25 mM Hepes pH 8.0, 150 mM KCl, 0.1% NP-40); eluted with 3XFlag peptide; MudPIT; triplicate, no-tag controls
[3] = target: T2, Dsn1-His-Flag (budding yeast), P40568; assay: affinity purification with mass spectrometry; Dsn1-Flag immunoprecipitated on antibody-conjugated Dyna-beads from lysate of cells arrested in G1 with α-factor (5 µM); buffer H0.15 (25 mM Hepes pH 8.0, 150 mM KCl, 0.1% NP-40); eluted with 3XFlag peptide; MudPIT; triplicate, no-tag controls; settings: remark: other sources report otherwise
T2 chain: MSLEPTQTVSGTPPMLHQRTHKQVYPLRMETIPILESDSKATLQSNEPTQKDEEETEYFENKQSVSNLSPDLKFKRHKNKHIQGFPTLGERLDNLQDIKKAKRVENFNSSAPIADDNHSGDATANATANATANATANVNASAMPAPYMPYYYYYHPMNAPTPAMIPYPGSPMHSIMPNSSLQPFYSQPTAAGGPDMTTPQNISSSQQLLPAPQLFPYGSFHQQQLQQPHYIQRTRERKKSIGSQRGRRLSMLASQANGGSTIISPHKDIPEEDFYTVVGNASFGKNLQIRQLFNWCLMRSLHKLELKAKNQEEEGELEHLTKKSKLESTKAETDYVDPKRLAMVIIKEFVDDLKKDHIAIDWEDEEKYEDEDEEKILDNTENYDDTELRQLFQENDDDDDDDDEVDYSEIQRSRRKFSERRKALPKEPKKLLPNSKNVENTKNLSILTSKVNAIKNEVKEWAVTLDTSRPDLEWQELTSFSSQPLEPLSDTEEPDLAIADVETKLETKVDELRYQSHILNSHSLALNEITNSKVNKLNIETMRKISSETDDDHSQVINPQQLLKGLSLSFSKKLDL

[4] = target: T2, Dsn1-His-Flag (budding yeast), P40568; assay: affinity purification with mass spectrometry; Dsn1-Flag immunoprecipitated on antibody-conjugated Dyna-beads from lysate of cdc15-1 cells arrested in anaphase (37°C for 3 h); buffer H0.15 (25 mM Hepes pH 8.0, 150 mM KCl, 0.1% NP-40); eluted with 3XFlag peptide; MudPIT; triplicate, no-tag controls; settings: remark: other sources report otherwise

B1: Fin1 (Filaments in between nuclei) (protein, UniProt Q03898 1-291)
chain: MSNKSNRRSLRDIGNTIGRNNIPSDKDNVFVRLSMSPLRTTSQKEFLKPPMRISPNKTDGMKHSIQVTPRRIMSPECLKGYVSKETQSLDRPQFKNSNKNVKIQNSDHITNIIFPTSPTKLTFSNENKIGGDGSLTRIRARFKNGLMSPERIQQQQQQHILPSDAKSNTDLCSNTELKDAPFENDLPRAKLKGKNLLVELKKEEEDVGNGIESLTKSNTKLNSMLANEGKIHKASFQKSVKFKLPDNIVTEETVELKEIKDLLLQMLRRQREIESRLSNIELQLTEIPKHK
binding [1]: no binding (only cells arrested in G1 with α factor) | binding [2]: binds

B2: Glc7p catalytic subunit of the protein phosphatase type 1 (PP1) complex, P32598 1-312 (enzyme)
chain: MDSQPVDVDNIIDRLLEVRGSKPGQQVDLEENEIRYLCSKARSIFIKQPILLELEAPIKICGDIHGQYYDLLRLFEYGGFPPESNYLFLGDYVDRGKQSLETICLLLAYKIKYPENFFILRGNHECASINRIYGFYDECKRRYNIKLWKTFTDCFNCLPIAAIIDEKIFCMHGGLSPDLNSMEQIRRVMRPTDIPDVGLLCDLLWSDPDKDIVGWSENDRGVSFTFGPDVVNRFLQKQDMELICRAHQVVEDGYEFFSKRQLVTLFSAPNYCGEFDNAGAMMSVDESLLCSFQILKPAQKSLPRQAGGRKKK
binding [3]: no binding | binding [4]: no binding
